No constants are given. Whether binding was seen depends on the method and setting. Binding seen in cells or lysates may run through a third protein. Some results given as binding are weak or reduced against the parent protein; the word gives no strength.

Sequences of proteins named here, by UniProt entry; tags and fusion partners are left off.
UniProt Q92905: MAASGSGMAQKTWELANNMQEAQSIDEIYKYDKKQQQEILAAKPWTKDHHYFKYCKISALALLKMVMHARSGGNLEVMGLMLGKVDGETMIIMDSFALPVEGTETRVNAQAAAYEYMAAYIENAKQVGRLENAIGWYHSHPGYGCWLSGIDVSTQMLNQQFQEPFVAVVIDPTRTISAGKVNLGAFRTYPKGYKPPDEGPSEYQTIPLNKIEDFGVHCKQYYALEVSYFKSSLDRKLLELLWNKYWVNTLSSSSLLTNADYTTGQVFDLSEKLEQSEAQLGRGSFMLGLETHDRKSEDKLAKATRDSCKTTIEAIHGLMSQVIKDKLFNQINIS

The test deals with T1, S100A7 (intracellular, in KYSE-30 and KYSE-150 cells) (human) (UniProt P31151).
T1 sequence: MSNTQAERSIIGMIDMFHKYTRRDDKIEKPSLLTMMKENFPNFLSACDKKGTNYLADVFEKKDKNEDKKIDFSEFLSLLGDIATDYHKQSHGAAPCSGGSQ
The test is described as follows: co-IP; anti-S100A7 co-immunoprecipitation from KYSE-30 and KYSE-150 cells, western blot for JAB1; beads only as blank control.

Turning to “C-Jun activation domain-binding protein-1 (JAB1) (from UniProt Q92905 1-334)”, the binding entry was “binds”.

Values taken from PMC8265170.
